PMC5423775, “Structure of a AAA+ unfoldase in the process of unfolding substrate” (eLife, 2017)

Sequences of proteins named here, by UniProt entry; tags and fusion partners are left off. A change or cut given only in a name is not applied to a line headed by its entry.
UniProt O05209: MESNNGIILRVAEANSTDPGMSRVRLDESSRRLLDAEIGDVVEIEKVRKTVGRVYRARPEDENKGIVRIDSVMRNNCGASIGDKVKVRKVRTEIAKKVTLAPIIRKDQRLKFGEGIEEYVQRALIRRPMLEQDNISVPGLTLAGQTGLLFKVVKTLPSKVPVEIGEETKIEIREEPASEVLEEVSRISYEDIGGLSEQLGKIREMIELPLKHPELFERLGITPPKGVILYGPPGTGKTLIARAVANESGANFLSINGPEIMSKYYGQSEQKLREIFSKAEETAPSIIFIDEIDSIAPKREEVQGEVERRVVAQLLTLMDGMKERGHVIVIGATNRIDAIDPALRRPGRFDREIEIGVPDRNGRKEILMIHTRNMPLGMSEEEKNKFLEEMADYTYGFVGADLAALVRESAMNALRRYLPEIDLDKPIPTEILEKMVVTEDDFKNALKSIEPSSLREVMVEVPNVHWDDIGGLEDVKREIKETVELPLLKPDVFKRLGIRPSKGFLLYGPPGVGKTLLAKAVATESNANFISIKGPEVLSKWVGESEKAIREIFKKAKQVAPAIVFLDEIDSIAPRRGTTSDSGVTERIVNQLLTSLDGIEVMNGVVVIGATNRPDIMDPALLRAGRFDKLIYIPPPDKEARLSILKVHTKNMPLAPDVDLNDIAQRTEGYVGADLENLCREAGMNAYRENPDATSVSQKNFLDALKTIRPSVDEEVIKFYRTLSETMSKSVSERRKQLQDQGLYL

Target: wild type VAT (Thermoplasma acidophilum) (Thermoplasma acidophilum) (UniProt O05209)
Assay: SEC; wild type and mutant protein mixed at different ratios, 15 μM protomer in 6 M guanidine hydrochloride, refolded by 1:20 dilution into 50 mM HEPES pH 7.5, 200 mM NaCl, 0.5 M arginine; concentrated; hexamer fractions collected; both purified

- binding: binds
Substance: catalytically inactivated VAT E291Q,E568Q (Walker B mutant) (from UniProt O05209) (enzyme)

No constants are given. Whether binding was seen depends on the method and setting. A result given as binding can be weak or reduced; the word gives no strength.
